Results published in the supplement of paper PMC10849652.
The list shows a part of the results. Residues, ends and D or L forms follow the SMILES beside them. *: point of attachment. Cbz = O=C(OCc1ccccc1)*

By UniProt entry, the sequences of proteins in these tests, tags left out. Where a name states a change or a piece, a line headed by the entry shows the natural chain unless it says otherwise.
UniProt P57088: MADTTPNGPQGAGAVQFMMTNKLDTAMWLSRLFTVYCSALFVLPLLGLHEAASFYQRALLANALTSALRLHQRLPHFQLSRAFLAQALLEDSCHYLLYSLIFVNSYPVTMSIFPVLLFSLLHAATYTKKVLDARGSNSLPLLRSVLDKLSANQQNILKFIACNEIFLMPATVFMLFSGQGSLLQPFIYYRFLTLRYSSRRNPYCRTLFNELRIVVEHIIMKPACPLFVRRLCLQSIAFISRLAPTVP
UniProt Q96A57: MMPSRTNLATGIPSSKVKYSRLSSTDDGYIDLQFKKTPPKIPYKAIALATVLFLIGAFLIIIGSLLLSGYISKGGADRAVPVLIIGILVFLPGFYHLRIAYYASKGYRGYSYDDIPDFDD
UniProt P49755: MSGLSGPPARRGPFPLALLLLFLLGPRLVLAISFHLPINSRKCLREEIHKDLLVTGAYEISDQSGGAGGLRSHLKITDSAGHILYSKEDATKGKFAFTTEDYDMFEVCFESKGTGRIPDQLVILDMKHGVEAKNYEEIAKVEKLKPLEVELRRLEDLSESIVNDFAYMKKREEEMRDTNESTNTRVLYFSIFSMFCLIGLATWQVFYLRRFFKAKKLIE
UniProt Q7Z7H5: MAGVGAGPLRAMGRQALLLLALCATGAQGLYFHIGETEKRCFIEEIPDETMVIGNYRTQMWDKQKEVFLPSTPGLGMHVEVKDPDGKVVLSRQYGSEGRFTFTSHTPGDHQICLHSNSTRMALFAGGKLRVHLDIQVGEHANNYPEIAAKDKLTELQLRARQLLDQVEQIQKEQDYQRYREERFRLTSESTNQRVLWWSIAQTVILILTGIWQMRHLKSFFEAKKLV
UniProt Q71RG4: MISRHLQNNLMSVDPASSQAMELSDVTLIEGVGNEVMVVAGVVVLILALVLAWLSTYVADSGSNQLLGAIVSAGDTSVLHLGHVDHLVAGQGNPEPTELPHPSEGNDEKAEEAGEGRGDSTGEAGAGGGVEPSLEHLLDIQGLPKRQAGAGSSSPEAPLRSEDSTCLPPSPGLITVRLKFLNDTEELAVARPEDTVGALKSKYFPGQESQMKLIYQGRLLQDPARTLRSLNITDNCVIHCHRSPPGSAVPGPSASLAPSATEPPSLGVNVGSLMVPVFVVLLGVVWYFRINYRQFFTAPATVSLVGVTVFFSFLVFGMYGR
UniProt P28289: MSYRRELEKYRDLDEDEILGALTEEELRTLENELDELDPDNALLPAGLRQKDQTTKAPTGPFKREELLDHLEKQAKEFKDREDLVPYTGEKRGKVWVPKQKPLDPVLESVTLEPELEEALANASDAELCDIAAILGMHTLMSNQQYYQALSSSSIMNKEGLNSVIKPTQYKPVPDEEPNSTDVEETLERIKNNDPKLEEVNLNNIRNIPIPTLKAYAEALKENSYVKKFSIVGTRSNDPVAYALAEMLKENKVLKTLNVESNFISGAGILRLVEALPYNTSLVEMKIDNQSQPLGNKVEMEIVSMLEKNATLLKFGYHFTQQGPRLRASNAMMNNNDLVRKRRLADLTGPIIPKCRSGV
UniProt Q99805: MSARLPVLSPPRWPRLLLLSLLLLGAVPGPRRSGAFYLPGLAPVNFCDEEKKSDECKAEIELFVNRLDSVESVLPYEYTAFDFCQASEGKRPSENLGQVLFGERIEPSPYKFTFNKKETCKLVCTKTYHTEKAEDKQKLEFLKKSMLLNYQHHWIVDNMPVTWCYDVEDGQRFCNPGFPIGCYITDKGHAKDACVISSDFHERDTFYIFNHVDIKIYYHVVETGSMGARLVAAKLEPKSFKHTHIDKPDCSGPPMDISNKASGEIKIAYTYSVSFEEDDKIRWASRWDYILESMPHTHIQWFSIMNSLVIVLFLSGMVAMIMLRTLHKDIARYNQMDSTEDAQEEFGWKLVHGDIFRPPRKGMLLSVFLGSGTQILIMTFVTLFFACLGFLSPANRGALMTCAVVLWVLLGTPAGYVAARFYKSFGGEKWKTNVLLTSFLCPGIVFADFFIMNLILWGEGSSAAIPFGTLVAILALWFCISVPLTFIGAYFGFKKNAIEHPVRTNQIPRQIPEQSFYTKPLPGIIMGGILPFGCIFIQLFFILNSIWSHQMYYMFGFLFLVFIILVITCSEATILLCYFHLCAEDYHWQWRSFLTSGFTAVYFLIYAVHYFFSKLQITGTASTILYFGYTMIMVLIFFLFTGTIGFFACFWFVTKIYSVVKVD
UniProt Q13445: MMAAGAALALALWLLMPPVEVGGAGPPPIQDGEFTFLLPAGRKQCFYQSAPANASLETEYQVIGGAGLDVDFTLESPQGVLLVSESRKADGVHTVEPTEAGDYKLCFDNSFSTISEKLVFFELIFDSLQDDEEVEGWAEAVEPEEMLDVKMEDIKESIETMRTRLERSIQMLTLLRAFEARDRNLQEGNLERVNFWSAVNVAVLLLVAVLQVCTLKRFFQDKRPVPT
UniProt Q9BTX3: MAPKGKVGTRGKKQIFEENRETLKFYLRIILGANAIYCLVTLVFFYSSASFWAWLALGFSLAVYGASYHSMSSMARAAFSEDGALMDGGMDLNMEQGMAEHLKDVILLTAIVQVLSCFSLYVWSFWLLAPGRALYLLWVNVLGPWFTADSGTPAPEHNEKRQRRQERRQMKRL
UniProt Q96JJ7: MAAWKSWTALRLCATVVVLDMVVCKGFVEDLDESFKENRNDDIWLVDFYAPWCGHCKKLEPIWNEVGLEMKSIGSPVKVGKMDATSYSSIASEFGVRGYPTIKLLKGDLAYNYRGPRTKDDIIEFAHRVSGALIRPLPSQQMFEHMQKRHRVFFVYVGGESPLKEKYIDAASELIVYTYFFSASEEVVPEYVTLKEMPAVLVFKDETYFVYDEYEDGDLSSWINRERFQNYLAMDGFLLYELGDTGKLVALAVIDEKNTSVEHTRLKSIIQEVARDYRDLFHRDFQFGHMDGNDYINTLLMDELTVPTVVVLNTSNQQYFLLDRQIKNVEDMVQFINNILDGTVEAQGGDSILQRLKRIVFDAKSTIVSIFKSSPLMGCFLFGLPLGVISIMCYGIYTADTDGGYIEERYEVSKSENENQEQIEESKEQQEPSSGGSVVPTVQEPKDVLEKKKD
UniProt Q6ZXV5: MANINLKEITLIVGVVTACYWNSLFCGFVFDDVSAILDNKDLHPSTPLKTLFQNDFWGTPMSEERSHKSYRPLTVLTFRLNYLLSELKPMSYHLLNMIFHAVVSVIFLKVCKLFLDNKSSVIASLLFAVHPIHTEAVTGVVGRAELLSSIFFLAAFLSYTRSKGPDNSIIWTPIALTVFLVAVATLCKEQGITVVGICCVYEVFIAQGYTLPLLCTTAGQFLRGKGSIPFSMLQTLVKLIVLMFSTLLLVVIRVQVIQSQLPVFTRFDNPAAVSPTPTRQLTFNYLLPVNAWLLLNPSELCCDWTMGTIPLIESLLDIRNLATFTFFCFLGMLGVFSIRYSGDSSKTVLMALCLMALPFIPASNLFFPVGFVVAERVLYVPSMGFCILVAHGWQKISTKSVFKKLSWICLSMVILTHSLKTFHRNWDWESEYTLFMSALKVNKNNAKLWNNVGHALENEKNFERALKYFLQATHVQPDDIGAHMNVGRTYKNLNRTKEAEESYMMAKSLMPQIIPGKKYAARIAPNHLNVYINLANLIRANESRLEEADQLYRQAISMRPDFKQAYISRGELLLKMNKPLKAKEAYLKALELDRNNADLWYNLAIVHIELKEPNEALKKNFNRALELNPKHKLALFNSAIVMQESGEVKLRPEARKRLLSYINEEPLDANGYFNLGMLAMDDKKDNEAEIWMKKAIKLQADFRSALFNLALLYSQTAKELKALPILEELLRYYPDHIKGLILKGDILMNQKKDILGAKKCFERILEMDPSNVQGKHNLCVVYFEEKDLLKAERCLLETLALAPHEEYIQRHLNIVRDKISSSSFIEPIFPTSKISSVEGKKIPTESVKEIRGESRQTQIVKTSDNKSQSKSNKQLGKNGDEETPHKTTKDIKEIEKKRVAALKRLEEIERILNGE
UniProt Q92544: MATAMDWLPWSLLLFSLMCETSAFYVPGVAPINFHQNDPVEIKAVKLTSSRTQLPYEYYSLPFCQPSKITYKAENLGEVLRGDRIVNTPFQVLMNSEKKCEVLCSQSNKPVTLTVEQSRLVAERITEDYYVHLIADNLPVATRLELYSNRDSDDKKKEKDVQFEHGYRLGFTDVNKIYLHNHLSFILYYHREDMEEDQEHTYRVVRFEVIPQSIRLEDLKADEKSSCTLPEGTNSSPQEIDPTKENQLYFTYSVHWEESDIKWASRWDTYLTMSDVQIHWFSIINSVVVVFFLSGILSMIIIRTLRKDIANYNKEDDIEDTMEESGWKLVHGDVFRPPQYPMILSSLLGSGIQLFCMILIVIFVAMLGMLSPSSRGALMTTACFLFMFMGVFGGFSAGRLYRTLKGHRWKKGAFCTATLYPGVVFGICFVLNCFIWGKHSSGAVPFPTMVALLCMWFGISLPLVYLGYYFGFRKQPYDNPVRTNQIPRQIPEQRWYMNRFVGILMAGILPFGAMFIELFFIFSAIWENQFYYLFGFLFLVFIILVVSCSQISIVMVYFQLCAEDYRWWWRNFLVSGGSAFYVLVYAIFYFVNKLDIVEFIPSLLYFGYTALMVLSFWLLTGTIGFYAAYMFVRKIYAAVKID
UniProt Q9UM00: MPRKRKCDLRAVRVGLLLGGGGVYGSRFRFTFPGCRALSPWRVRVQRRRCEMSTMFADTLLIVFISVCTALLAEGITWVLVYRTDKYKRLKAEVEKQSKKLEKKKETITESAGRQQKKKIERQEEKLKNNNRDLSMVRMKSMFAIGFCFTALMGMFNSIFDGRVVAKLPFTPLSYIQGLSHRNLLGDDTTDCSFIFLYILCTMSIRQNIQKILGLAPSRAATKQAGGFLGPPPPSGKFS
UniProt Q9NX61: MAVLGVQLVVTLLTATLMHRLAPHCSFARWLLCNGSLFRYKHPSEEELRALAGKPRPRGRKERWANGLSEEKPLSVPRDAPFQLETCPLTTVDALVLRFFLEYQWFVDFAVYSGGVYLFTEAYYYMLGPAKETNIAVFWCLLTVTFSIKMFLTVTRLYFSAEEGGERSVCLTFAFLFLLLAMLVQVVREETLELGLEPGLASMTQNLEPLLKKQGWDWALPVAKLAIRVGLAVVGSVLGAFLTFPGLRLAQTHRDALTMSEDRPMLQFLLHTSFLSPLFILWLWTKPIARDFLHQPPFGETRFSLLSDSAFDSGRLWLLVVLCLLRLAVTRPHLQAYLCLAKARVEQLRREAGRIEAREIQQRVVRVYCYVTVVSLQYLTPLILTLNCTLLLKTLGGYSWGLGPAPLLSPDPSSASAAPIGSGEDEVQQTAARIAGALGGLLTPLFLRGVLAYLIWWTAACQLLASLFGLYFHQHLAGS
UniProt P55061, whole entry, looked up: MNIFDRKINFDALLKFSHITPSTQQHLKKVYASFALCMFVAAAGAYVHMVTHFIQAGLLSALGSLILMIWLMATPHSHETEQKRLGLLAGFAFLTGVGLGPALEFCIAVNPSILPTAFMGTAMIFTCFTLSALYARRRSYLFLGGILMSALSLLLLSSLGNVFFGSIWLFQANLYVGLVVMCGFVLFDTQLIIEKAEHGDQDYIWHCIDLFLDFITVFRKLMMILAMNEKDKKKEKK

Tests used:
Assay in all cases: log2 fold change, soluble protein after heating vs DMSO (PISA); higher = thermal stabilisation; K562 cells, 10 uM, 30 min; active = over 0.2 and 3.5 SD of the protein, either way, in both replicates (recomputed)
erlotinib = compound: C#Cc1cccc(Nc2ncnc3cc(OCCOC)c(OCCOC)cc23)c1 [erlotinib]
Summary of the method: (§1)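 Values are thermal stability changes relative to control samples and are taken from duplicates. They are stated as log2 fold changes. Before quantification by TMTpro 16plex LC-MS/MS with equalised channel sums, K562 cells at 2×10^6 cells/mL were treated with 10 μM compound for 30 min, heated in aliquots for 3 min across 48°C-58°C, pooled, extracted in PBS with 0.5% NP-40 at 4°C, and centrifuged at 21,000xg for 90 min to give the soluble supernatant.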

[1] = compound: C/C(=N\NC(=O)C1=CC(=CC=C1)S(=O)(=O)N2CCOCC2)/C3=C(C=CC(=C3)Cl)O
Summary of the method: as §1

[2] = compound: C1=CC(=C(C=C1Cl)C2=NC3=NC=CN=C3C(=N2)NC4=CC=NC=C4)F
Summary of the method: as §1

[3] = compound: C1=CC(=CC=C1C2=NC3=C(N2)C=C(C=C3)C(=O)N)OC4=CC=C(C=C4)Cl
Summary of the method: as §1

[4] = compound: C1=CC2=C(C=CC(=C2)/C=C\3/C(=O)NC(=NCC4=CC=CS4)S3)N=C1
Summary of the method: as §1

[5] = compound: C1=CC2=NC=CN=C2C=C1/C=C/3\C(=O)NC(=O)S3
Summary of the method: as §1

[6] = compound: C1=CC=C(C=C1)C2=NC(=C(N2)C3=CC=NC=C3)C4=CC(=C(C=C4)Cl)O
Summary of the method: as §1

[7] = compound: C1=CC=C2C(=C1)C3=NNC4=CC=CC(=C43)C2=O
Summary of the method: as §1

[8] = compound: C1CCN(C1)C(=O)NC2=CC=CC(=C2)NC3=NC=C(C(=N3)NCCC4=CN=CN4)Br
Summary of the method: as §1

[9] = compound: C1CN(CCC1(CC2=CC=C(C=C2)Cl)N)C3=NC=NC4=C3C=CN4
Summary of the method: as §1

IRAK-1-4 Inhibitor I = compound: C1COCCN1CCN2C3=CC=CC=C3N=C2NC(=O)C4=CC(=CC=C4)[N+](=O)[O-] [IRAK-1-4 Inhibitor I]
Summary of the method: as §1

ibrutinib = compound: C=CC(=O)N1CCC[C@@H](n2nc(-c3ccc(Oc4ccccc4)cc3)c3c(N)ncnc32)C1 [ibrutinib]
Summary of the method: as §1

[10] = compound: CC(=O)c1cnc2ccc(-c3cc(Cl)c(O)c(Cl)c3)nc2c1N[C@H]1CC[C@H](CN(C)C)CC1
Summary of the method: as §1

ralimetinib = compound: CC(C)(C)Cn1c(N)nc2ccc(-c3[nH]c(C(C)(C)C)nc3-c3ccc(F)cc3)nc21 [ralimetinib]
Summary of the method: as §1

[11] = compound: CC(C)(O)CC(=O)NCCn1ccc2ncnc(Nc3ccc(Oc4cccc(C(F)(F)F)c4)c(Cl)c3)c21
Summary of the method: as §1

[12] = compound: CC(C)C1=C2N=C(C=C(N2N=C1)NCC3=CC=CC=C3)NCCCCCCN
Summary of the method: as §1

[13] = compound: CC(C)C[C@@H](C=O)NC(=O)[C@H](CC(C)C)NC(=O)[C@H](CC(C)C)NC(=O)OCc1ccccc1
Summary of the method: as §1

pinometostat = compound: CC(C)N(C[C@H]1O[C@@H](n2cnc3c(N)ncnc32)[C@H](O)[C@@H]1O)[C@H]1C[C@@H](CCc2nc3cc(C(C)(C)C)ccc3[nH]2)C1 [pinometostat]
Summary of the method: as §1

[14] = compound: CC1=C(C(CC(=O)N1)C2=CC=C(C=C2)C(F)(F)F)C(=O)NC3=C(C=C4C(=C3)C=NN4)F
Summary of the method: as §1

[15] = compound: CC1=C(C2=C(C=C1)C(=O)C3=CC=CC=C3N2CCCN)C
Summary of the method: as §1

Measured: log2 fold change

TMEM33 (UniProt P57088)
inactive: erlotinib -0.026 | [1] 0.048 | [2] 0.02 | [3] 0.01 | [4] 0.011 | [5] 0.025 | [6] 0.067 | [7] -0.013 | [8] -0.003 | [9] 0.038 | IRAK-1-4 Inhibitor I 0.016 | ibrutinib 0.04 | [10] -0.007 | ralimetinib -0.021 | [11] -0.044 | [12] -0.011 | [13] -0.091 | pinometostat -0.028 | [14] -0.029 | [15] 0.05

TMEM230 isoform 2 (UniProt Q96A57)
inactive: erlotinib 0.089 | [1] 0.038 | [2] 0.045 | [3] -0.019 | [4] -0.037 | [5] 0.141 | [6] 0.035 | [7] 0.009 | [8] 0.019 | [9] 0.045 | IRAK-1-4 Inhibitor I 0.088 | ibrutinib -0.024 | [10] -0.008 | ralimetinib 0.028 | [11] 0.006 | [12] -0.007 | [13] -0.029 | pinometostat -0.012 | [14] 0.046 | [15] -0.054

TMED10 (UniProt P49755)
inactive: erlotinib 0 | [1] 0.031 | [2] 0.152 | [3] -0.023 | [4] 0.033 | [5] 0.004 | [6] 0.024 | [7] 0.001 | [8] 0.008 | [9] 0.037 | IRAK-1-4 Inhibitor I 0.035 | ibrutinib 0.003 | [10] 0.001 | ralimetinib 0.022 | [11] -0.053 | [12] -0.008 | [13] -0.019 | pinometostat 0.006 | [14] -0.018 | [15] 0.011

TMED4 (UniProt Q7Z7H5)
inactive: erlotinib 0.047 | [1] 0.078 | [2] 0.061 | [3] -0.025 | [4] 0.022 | [5] 0.054 | [6] -0.065 | [7] -0.076 | [8] -0.031 | [9] -0.002 | IRAK-1-4 Inhibitor I 0.046 | ibrutinib 0.013 | [10] -0.046 | ralimetinib -0.082 | [11] -0.025 | [12] -0.026 | [13] -0.025 | pinometostat -0.039 | [14] 0.001 | [15] 0.033

2 successive records already listed, for reference:
TMEM230 isoform 2 (UniProt Q96A57)
inactive: erlotinib 0.089 | [1] 0.038 | [2] 0.045 | [3] -0.019 | [4] -0.037 | [5] 0.141 | [6] 0.035 | [7] 0.009 | [8] 0.019 | [9] 0.045 | IRAK-1-4 Inhibitor I 0.088 | ibrutinib -0.024 | [10] -0.008 | ralimetinib 0.028 | [11] 0.006 | [12] -0.007 | [13] -0.029 | pinometostat -0.012 | [14] 0.046 | [15] -0.054

TMED10 (UniProt P49755)
inactive: erlotinib 0 | [1] 0.031 | [2] 0.152 | [3] -0.023 | [4] 0.033 | [5] 0.004 | [6] 0.024 | [7] 0.001 | [8] 0.008 | [9] 0.037 | IRAK-1-4 Inhibitor I 0.035 | ibrutinib 0.003 | [10] 0.001 | ralimetinib 0.022 | [11] -0.053 | [12] -0.008 | [13] -0.019 | pinometostat 0.006 | [14] -0.018 | [15] 0.011

The list goes on.

TMUB2 (UniProt Q71RG4)
inactive: erlotinib 0.052 | [1] -0.041 | [2] 0.063 | [3] 0.017 | [4] 0.007 | [5] -0.016 | [6] -0.073 | [7] -0.065 | [8] 0.119 | [9] 0.052 | IRAK-1-4 Inhibitor I -0.041 | ibrutinib 0.035 | [10] -0.018 | ralimetinib 0.017 | [11] 0.022 | [12] 0.083 | [13] 0.13 | pinometostat -0.004 | [14] -0.041 | [15] -0.069

TMOD1 (UniProt P28289)
inactive: erlotinib 0.005 | [1] 0 | [2] -0.013 | [3] -0.012 | [4] -0.015 | [5] 0.085 | [6] -0.006 | [7] -0.039 | [8] -0.031 | [9] -0.019 | IRAK-1-4 Inhibitor I -0.037 | ibrutinib -0.034 | [10] 0.072 | ralimetinib 0.052 | [11] -0.033 | [12] -0.032 | [13] 0.063 | pinometostat 0.084 | [14] 0.068 | [15] -0.046

TM9SF2 (UniProt Q99805)
active: [12] -0.436
inactive: erlotinib 0.012 | [1] 0.025 | [2] 0.037 | [3] -0.006 | [4] 0.027 | [5] -0.021 | [6] 0.04 | [7] 0.009 | [8] -0.04 | [9] 0.063 | IRAK-1-4 Inhibitor I 0.06 | ibrutinib 0.01 | [10] -0.04 | ralimetinib -0.049 | [11] 0.021 | [13] -0.012 | pinometostat -0.003 | [15] 0.027

TMED1 (UniProt Q13445)
inactive: erlotinib -0.007 | [1] 0.083 | [2] 0.095 | [3] -0.008 | [4] -0.028 | [5] 0.048 | [6] -0.109 | [7] 0.005 | [8] -0.019 | [9] 0.016 | IRAK-1-4 Inhibitor I -0.008 | ibrutinib -0.005 | [10] 0.077 | ralimetinib -0.217 | [11] -0.055 | [12] 0.024 | [13] 0.064 | pinometostat -0.053 | [14] -0.035 | [15] 0.005

TMEM208 (UniProt Q9BTX3)
inactive: erlotinib -0.021 | [1] 0.032 | [2] 0.101 | [3] 0.046 | [4] 0.13 | [5] 0.011 | [6] -0.054 | [7] -0.098 | [8] -0.002 | [9] 0.033 | IRAK-1-4 Inhibitor I 0.04 | ibrutinib -0.09 | [10] 0.078 | ralimetinib -0.145 | [11] -0.088 | [13] 0.046 | pinometostat 0.081 | [15] 0.081
active: [12] -0.412

TMX3 (UniProt Q96JJ7)
inactive: erlotinib -0.007 | [1] -0.035 | [2] 0.022 | [3] -0.008 | [4] 0.036 | [5] 0.025 | [6] -0.038 | [7] 0 | [8] -0.009 | [9] 0.03 | IRAK-1-4 Inhibitor I -0.012 | ibrutinib -0.027 | [10] -0.034 | ralimetinib -0.074 | [11] -0.034 | [12] 0.041 | [13] -0.005 | pinometostat 0.043 | [14] 0.019 | [15] 0.026

TMTC3 (UniProt Q6ZXV5)
inactive: erlotinib 0 | [1] 0 | [2] 0.007 | [3] 0.023 | [4] 0.042 | [5] 0.002 | [6] 0.001 | [7] -0.001 | [8] -0.064 | [9] -0.014 | IRAK-1-4 Inhibitor I 0.007 | ibrutinib -0.033 | [10] -0.007 | ralimetinib 0 | [11] 0.022 | [12] -0.218 | [13] 0.028 | pinometostat -0.019 | [15] 0.018

TM9SF4 (UniProt Q92544)
inactive: erlotinib -0.015 | [1] 0.011 | [2] -0.006 | [3] 0.052 | [4] -0.054 | [5] -0.002 | [6] 0.008 | [7] 0.038 | [8] -0.012 | [9] 0.066 | IRAK-1-4 Inhibitor I -0.006 | ibrutinib 0.008 | [10] -0.016 | ralimetinib 0.031 | [11] -0.006 | [12] -0.033 | [13] 0.029 | pinometostat 0.016 | [15] 0.077

TMCO1 (UniProt Q9UM00)
inactive: erlotinib 0.003 | [1] 0.03 | [2] -0.032 | [3] -0.031 | [4] 0.064 | [5] 0.009 | [6] 0.067 | [7] -0.06 | [8] 0.023 | [9] 0.021 | IRAK-1-4 Inhibitor I 0.083 | ibrutinib -0.04 | [10] -0.061 | ralimetinib -0.147 | [11] 0.006 | [12] -0.11 | [13] -0.05 | pinometostat -0.025 | [14] 0 | [15] 0.051

TMEM161A (UniProt Q9NX61)
inactive: erlotinib 0.017 | [1] 0.088 | [2] -0.019 | [3] -0.018 | [4] 0.021 | [5] 0.001 | [6] 0.029 | [7] -0.006 | [8] -0.067 | [9] 0.054 | IRAK-1-4 Inhibitor I 0.03 | ibrutinib -0.015 | [10] 0.045 | ralimetinib -0.059 | [11] -0.17 | [13] -0.045 | pinometostat 0.121 | [15] 0.071
active: [12] -0.395

TMBIM6 isoform 2 (UniProt P55061)
inactive: erlotinib -0.019 | [1] 0.029 | [2] 0.051 | [3] -0.062 | [4] 0.067 | [5] 0.076 | [6] 0.019 | [7] -0.07 | [8] 0.026 | [9] -0.01 | IRAK-1-4 Inhibitor I 0.023 | ibrutinib 0.001 | [10] 0.004 | ralimetinib -0.208 | [13] 0.135 | pinometostat 0.017 | [15] -0.075
active: [11] -0.437 | [12] -0.521
